Reference: the supplement of paper PMC6078165

Tested on: MDAMB231
Test: relative JC-1 red fluorescence (viability) vs pre-drug, coculture with fibroblast (fraction); higher = more viable cancer cells
Conditions: 0.1 µM
Experimental: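 JC-1 labelled TNBC cells cocultured 1:1 (1,500 cells each) with CellTrace Violet stained primary or stromal fibroblasts in 384-well plates in FluoroBrite medium, treated with one of 42 anticancer drugs at 0.1, 1, 10 or 100 uM. JC-1 red fluorescence (mitochondrial integrity in cancer cells only) was read by plate reader every 8 h for 72 h. Values are normalised to each well's pre-drug value. The stock of one drug was tenfold lower, so its dose labels may be too high.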

CCCCCOC(=O)Nc1nc(=O)n([C@@H]2O[C@H](C)[C@@H](O)[C@H]2O)cc1F [Capecitabine]
relative JC-1 red fluorescence
Conditions | 40 h | 48 h | 56 h | 64 h | 72 h
coculture fibroblast: C12385 | – | 0.5132 | 0.466 | 0.454 | 0.431
coculture fibroblast: H6013 | – | 0.714 | 0.694 | 0.658 | 0.61
coculture fibroblast: H6019 | – | 0.606 | 0.556 | 0.535 | 0.492
coculture fibroblast: H6076 | – | 0.675 | 0.642 | 0.621 | 0.611
coculture fibroblast: H6231 | – | 0.606 | 0.56 | 0.529 | 0.5
coculture fibroblast: HADF | – | 0.677 | 0.665 | 0.652 | 0.605
coculture fibroblast: HCFa | – | 0.665 | 0.635 | 0.6 | 0.55
coculture fibroblast: HCPF | – | 0.583 | 0.542 | 0.515 | 0.496
coculture fibroblast: HHSteC | 0.645 | 0.613 | 0.564 | 0.528 | 0.487
coculture fibroblast: HMF | 0.635 | 0.5806 | 0.541 | 0.516 | 0.497
coculture fibroblast: HPFa | 0.73 | 0.682 | 0.624 | 0.583 | 0.516
coculture fibroblast: HUF | 0.51 | 0.48 | 0.434 | 0.429 | 0.405
coculture fibroblast: Hs5 | 0.6229 | 0.5622 | 0.529 | 0.49195 | 0.471
coculture fibroblast: Hs27A | 0.631 | 0.544 | 0.562 | 0.534 | 0.487
coculture fibroblast: Hs343T | 0.554 | 0.497 | 0.436 | 0.406 | 0.381
coculture fibroblast: WS1 | 0.466 | 0.438 | 0.393 | 0.39 | 0.368

The reference is the same well before dosing, and untreated signal decays as well.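 Fibroblast labels name human fibroblasts: mostly primary ones from tissues such as uterus (C12385, HUF), lung (H6013), bone (Hs27A), adrenal (HADF) and skin (WS1), plus mammary HMF and breast cancer-associated Hs343T. The cancer cells are basal-like or mesenchymal-like triple-negative breast cancer lines. The paper calls a changed response a hit when it shifts by more than 3x the replicate standard deviation. The tissue of the other fibroblasts is not given here.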
